Results: US20040009947A1, “Compounds and methods for enhancing delivery of free polynucleotide” (priority 1998, published 2004)
At least one compound was matched to its structure with a doubt left.

Legend:
Topoisomerase II = details: cited from earlier work
mouse lung = assay: Intratracheal plasmid transfection of mouse lung, luciferase reporter assay of lung homogenate; format: in vivo
[1] = system: lung DNAse activity (lung lavage protein); assay: DNAse activity in lung fluid +/- ATA, agarose gel electrophoresis; format: biochemical; details: macaque lung fluid, FIG. 10B; 1 or 4 μg ATA, 2 hours 37° C.
[2] = system: lung DNAse activity (lung lavage protein); assay: as above; format: biochemical, mouse; details: murine lung fluid, FIG. 10A; 1 or 4 μg ATA, 2 hours 37° C.
16HBE14o = assay: Transfection of cultured cells with DNA/DOTAP +/- ATA, luciferase assay; format: cell-based, human; details: ATA doses comparable to those given to mice
Experimental: The human respiratory epithelial cell line, 16HBE14o (Dieter Grunert, UCSF) was cultured on flasks coated with fibronectin (Collaborative Research-Bectin Dickinson), vitrogen (Collagen Corp), basal media (Biofluids, Inc.) and bovine serum albumen (Biofluids, Inc.) as previously described [Gruenert, 1990 #7; Cozens, 1994 #8]. Cells were cultured on twenty four well tissue culture plates (Corning) coated with the above mixture. Culture media was Eagle's modified essential medium (EM) supplemented with 10% fetal bovine serum. 16HBE 14o cells were plated at a density of 5×10^4 cells/ml 24 hours prior to transfection and cells were transfected as subconfluent monolayer. […]
(§1) Relative luciferase activity was determined using the Enhanced Luciferase Assay Kit and Monolight 2010 luminometer (Analytical Luminescence Laboratories, San Diego, Calif.). […] For In vitro experiments, luciferase light emissions from 20 μl of the cell lysate were measured over a 10 second period, and results expressed as a function of the total lysate volume. For in vivo experiments, luciferase light emissions from […] of the lysate were measured over a 10 second period, and results expressed as a function of the total lysate volume.

NIH3T3 = assay: as above; format: cell-based; details: ATA doses comparable to those given to mice
Experimental: NIH3T3 (ATCC CRL 1658) were grown in Dulbecco's Modified Eagle's Medium and 10% calf serum. NIH3T3 were also plated at a density of 5×10^4 cells/ml in 24 well plates 24 hours prior to transfection and cells were transfected as subconfluent monolayer.
The sequential addition of appropriate amounts of serum-free DMEM, plasmid DNA ([…]), ATA in serum-free DEM and filter sterilized (see below for doses), and DOTAP (DOTAP:DNA formulation of 5 μg: 1 μg) were pippetted into a 2 ml Eppendorf tube to give a total volume of […] and mixed with a vortex mixer. A […] aliquot of the resultant transfection complex was added to each well of the cells above after the cell media had been aspirated off. The cells were incubated for 2 hours at 37° C. At the two hour time point, the mixture was removed and one ml of culture media was added to each well. […]
as §1

[3] = system: pulmonary-derived DNAse activity; assay: In vitro lung nuclease test with lavage fluid or tissue extract, plasmid degradation by gel electrophoresis; format: biochemical; details: mouse lavage fluid (2 hours 37C) or tissue extract (1/2 hour 37C)
[4] = system: lung DNAse activity (lung lavage protein); assay: DNAse activity in lung fluid +/- ATA, agarose gel electrophoresis; format: biochemical; details: human lung fluid, FIG. 10C; 1 or 4 μg ATA, 2 hours 37° C.

## O=C(O)C1=CC(=C(c2ccc(O)c(C(=O)O)c2)c2ccc(O)c(C(=O)O)c2)C=CC1=O [ATA, aurin tricarboxylic acid]
Topoisomerase II
  concentration at which ATA inhibits the action of topoisomerase II: about 0.2 micromolar
Mouse lung; 6 mg/kg ATA intratracheal
  Enhancement of luciferase reporter gene expression at high dose: decline in enhancement
Mouse lung; intratracheal plasmid with DNAse inhibitor, mouse lung
  Level of reporter protein expression after intratracheal administration of plasmid, enhancement by co-administration: markedly augmented
[1]
  Inhibition of lung DNAse activity in vitro: inhibits lung DNAse activity
[2]
  Inhibition of lung DNAse activity in vitro: inhibits lung DNAse activity
16HBE14o
  Transfection (relative light units), DNA with ATA/DOTAP versus DNA/DOTAP: no significant differences
NIH3T3
  Transfection (relative light units), DNA with ATA/DOTAP versus DNA/DOTAP: no significant differences
[3]
  Inhibition of pulmonary-derived DNAse activity: inhibition
[4]
  Inhibition of lung DNAse activity in vitro: inhibits lung DNAse activity
